Measurements from patent US11559544B2, “Combination of a MAPK/ERK pathway inhibitor and a glycosaminoglycan for the treatment of cancer” (CELL RECEPTOR AG, priority 2017, dated 2023).
At least one compound was matched to its structure with a doubt left.

System: NRAS mutant melanoma cell lines DO4 and MM415 resistant to trametinib
Assay: Growth of trametinib-resistant cancerous cells co-incubated daily with platelets (Example 3)
Type: cell-based, Human
Conditions: serum-free, platelets 30 minutes each day
Method: Three populations of cells are cultivated in the presence of the inhibitor under serum-free conditions.
For a first population of the cells PPS is added to the cell culture dishes, while for a second population, i.e. the control cells, no PPS is added.
For a third population of the cells DXS is added to the cell culture dishes.
Each day all cell populations are co-incubated with platelets for 30 minutes, which are subsequently washed away.
The third experiment is performed as described for Example 1 except that cells that have developed a resistance against the MEK inhibitor trametinib (GSK1120212) are used and cultivated in the presence of the MEK inhibitor trametinib.
As described in Vujic et al. 2014 in detail cancerous cells that have developed a resistance against the MEK inhibitor trametinib are generated by growing Human NRAS mutant melanoma cell lines DO4 and MM415 in the presence of increased concentrations of trametinib (GSK1120212) over a period of approximately 6 months.
For each of the cancerous cell lines that have developed a resistance against the MEK inhibitor trametinib the cultivation steps as in Example 1 are performed, except that the cells are cultivated in the presence of the MEK inhibitor trametinib.

**Q.** With `CC(=O)Nc1cccc(-n2c(=O)n(C3CC3)c(=O)c3c(Nc4ccc(I)cc4F)n(C)c(=O)c(C)c32)c1` [trametinib] as the compound, how does the “growth of control cells with MEK inhibitor alone (no PPS/DXS)” value read?
**A.** continue to grow and divide
